# Results published in US20070123460A1, “Probiotic compounds from Lactobacillus GG and uses therefor” (THE UNIVERSITY OF CHICAGO, priority 2005, published 2007).
# For at least one compound, name, drawing or mass did not settle the structure.
# Test system: Akt
# Experiment: Akt assay, phospho-Akt Western blot
# Format: cell-based, mouse
# Conditions: pretreatment 1 hour, 50 μM
smiles,measurement,value
O=c1cc(N2CCOCC2)oc2c(-c3ccccc3)cccc12 [LY],inhibition of LGG-CM-induced Akt activation,inhibited
